The campaign covered roughly 83,000 compounds. About 780 (0.94%) were called active. Inconclusive means that the source gave no clear call. Such entries were picked first, then a sample of the others.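 The calls were made as follows: active = mean inhibition of at least 50% with a set share of replicates also reaching that level; inconclusive = no clear call, values can overlap the other calls; inactive = the rest.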
assay: inhibitors of CD40-induced NF-kB signaling, primary screen, BL2 cells, luciferase reporter, single point (AID 1053188); conditions: CD40L-induced, 4 h, active compounds read high; at 10 µM unless noted;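 also: 0% = neutral control wells and 100% = IKK inhibitor VII at 50 µM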

Row | SMILES | inhibition
1 | CC1CC(C)CC(C)C(O)C(C#N)=CC=CCC(C2CCCC2C(=O)O)OC(=O)CC(O)C(C)C1 (centres undefined) | active: 94.1%
2 | O=[N+]([O-])c1ccc(N2CCOCC2)c2c1no[n+]2[O-] | active: 86%
3 | CC12CC[C@H]3[C@@H](CCC4(O)C[C@H](O)CCC34/C=N/NC(=O)Cc3ccccc3)C1(O)CCC2C1=CC(=O)OC1 (some centres undefined) | inconclusive: 17.5%
4 | CC12CCC3C(CCC4C(=O)C(=O)CCC43C)C1CCC2=O (centres undefined) | inactive: 4.02% [at 25 µM]

Source: PubChem BioAssay AID1053188 (Broad Institute, 2014)
